This is an account of results in publication doi:10.1101/2020.03.18.994004.

By UniProt entry, the sequences of proteins in these tests, tags left out.
UniProt P35609: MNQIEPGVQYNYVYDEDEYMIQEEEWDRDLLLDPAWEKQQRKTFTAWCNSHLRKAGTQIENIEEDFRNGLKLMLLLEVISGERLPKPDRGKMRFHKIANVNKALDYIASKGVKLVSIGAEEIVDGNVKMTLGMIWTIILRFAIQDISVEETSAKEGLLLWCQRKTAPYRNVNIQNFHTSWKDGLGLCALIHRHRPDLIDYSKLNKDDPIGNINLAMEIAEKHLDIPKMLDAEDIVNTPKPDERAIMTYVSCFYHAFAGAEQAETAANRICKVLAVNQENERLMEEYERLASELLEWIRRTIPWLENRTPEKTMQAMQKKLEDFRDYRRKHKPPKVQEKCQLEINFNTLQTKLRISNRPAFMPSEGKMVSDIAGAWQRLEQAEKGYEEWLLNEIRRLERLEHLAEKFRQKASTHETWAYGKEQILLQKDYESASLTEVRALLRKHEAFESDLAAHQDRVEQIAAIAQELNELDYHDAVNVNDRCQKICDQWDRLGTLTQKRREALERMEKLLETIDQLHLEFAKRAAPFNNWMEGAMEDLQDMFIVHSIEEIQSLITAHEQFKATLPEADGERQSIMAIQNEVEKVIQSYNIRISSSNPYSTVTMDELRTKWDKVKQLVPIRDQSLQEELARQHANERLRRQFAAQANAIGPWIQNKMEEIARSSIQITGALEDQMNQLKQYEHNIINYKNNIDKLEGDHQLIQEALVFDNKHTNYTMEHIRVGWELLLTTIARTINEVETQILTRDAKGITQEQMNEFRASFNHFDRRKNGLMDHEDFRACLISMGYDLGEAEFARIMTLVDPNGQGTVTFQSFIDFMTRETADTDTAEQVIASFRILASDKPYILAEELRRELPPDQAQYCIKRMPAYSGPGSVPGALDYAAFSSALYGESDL

In the test the target is full-length actinin, mammalian two-hybrid bait (human) (UniProt P35609). In words: two-hybrid.

No constants are given. Whether binding was seen depends on the method and setting. Some entries that bind do so weakly or less than the wild type.

B1: IGF2BP2 KH domain (residues 161-600), mammalian two-hybrid prey (domain or fragment, UniProt Q9Y6M1 161-599)
chain: SSPSPPQRAQRGDHSSREQGHAPGGTSQARQIDFPLRILVPTQFVGAIIGKEGLTIKNITKQTQSRVDIHRKENSGAAEKPVTIHATPEGTSEACRMILEIMQKEADETKLAEEIPLKILAHNGLVGRLIGKEGRNLKKIEHETGTKITISSLQDLSIYNPERTITVKGTVEACASAEIEIMKKLREAFENDMLAVNQQANLIPGLNLSALGIFSTGLSVLSPPAGPRGAPPAAPYHPFTTHSGYFSSLYPHHQFGPFPHHHSYPEQEIVNLFIPTQAVGAIIGKKGAHIKQLARFAGASIKIAPAEGPDVSERMVIITGPPEAQFKAQGRIFGKLKEENFFNPKEEVKLEAHIRVPSSTAGRVIGKGGKTVNELQNLTSAEVIVPRDQTPDENEEVIVRIIGHFFASQTAQRKIREIVQQVKQQEQKYPQGVASQRSK
In the case of B1, the binding result was “binds”.

B2: IGF2BP2 RRM domain (residues 1-160), mammalian two-hybrid prey (domain or fragment, UniProt Q9Y6M1 1-160)
chain: MMNKLYIGNLSPAVTADDLRQLFGDRKLPLAGQVLLKSGYAFVDYPDQNWAIRAIETLSGKVELHGKIMEVDYSVSKKLRSRKIQIRNIPPHLQWEVLDGLLAQYGTVENVEQVNTDTETAVVNVTYATREEAKIAMEKLSGHQFENYSFKISYIPDEEV
Regarding B2, the binding entry was “no binding”.
